These results are taken from article doi:10.1101/2024.10.23.619882.

Protein sequences, listed by entry. Tags and fused reporters are not part of them. Lines headed by an entry give the natural chain unless they say otherwise; changes in a name come on top. Chains listed by the source or under a name are the forms on record and can include a tag or linker. Residues count along the entry.
UniProt Q99962: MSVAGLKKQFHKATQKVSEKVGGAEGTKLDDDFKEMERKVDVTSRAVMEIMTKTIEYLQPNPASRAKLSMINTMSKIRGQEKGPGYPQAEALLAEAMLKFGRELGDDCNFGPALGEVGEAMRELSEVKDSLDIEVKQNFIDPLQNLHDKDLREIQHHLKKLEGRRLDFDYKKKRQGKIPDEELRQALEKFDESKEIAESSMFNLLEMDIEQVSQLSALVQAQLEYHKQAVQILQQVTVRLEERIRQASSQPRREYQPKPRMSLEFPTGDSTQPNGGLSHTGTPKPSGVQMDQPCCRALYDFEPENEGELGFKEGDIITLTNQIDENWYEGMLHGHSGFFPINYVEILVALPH
GST-tagged SH3 domain of EndoA1: residues 290-349 of Q99962
UniProt Q99963: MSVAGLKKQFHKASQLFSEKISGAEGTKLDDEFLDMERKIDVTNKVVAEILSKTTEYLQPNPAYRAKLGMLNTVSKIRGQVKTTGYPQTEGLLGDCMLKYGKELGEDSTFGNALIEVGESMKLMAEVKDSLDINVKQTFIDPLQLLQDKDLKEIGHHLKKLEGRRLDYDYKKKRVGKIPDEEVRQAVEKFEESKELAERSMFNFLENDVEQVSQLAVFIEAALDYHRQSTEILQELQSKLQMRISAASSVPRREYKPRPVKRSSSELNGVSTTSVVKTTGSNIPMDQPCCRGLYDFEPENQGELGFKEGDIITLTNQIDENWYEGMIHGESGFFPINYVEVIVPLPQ
GST-tagged SH3 domain of EndoA3: residues 285-344 of Q99963
UniProt B1AXH1: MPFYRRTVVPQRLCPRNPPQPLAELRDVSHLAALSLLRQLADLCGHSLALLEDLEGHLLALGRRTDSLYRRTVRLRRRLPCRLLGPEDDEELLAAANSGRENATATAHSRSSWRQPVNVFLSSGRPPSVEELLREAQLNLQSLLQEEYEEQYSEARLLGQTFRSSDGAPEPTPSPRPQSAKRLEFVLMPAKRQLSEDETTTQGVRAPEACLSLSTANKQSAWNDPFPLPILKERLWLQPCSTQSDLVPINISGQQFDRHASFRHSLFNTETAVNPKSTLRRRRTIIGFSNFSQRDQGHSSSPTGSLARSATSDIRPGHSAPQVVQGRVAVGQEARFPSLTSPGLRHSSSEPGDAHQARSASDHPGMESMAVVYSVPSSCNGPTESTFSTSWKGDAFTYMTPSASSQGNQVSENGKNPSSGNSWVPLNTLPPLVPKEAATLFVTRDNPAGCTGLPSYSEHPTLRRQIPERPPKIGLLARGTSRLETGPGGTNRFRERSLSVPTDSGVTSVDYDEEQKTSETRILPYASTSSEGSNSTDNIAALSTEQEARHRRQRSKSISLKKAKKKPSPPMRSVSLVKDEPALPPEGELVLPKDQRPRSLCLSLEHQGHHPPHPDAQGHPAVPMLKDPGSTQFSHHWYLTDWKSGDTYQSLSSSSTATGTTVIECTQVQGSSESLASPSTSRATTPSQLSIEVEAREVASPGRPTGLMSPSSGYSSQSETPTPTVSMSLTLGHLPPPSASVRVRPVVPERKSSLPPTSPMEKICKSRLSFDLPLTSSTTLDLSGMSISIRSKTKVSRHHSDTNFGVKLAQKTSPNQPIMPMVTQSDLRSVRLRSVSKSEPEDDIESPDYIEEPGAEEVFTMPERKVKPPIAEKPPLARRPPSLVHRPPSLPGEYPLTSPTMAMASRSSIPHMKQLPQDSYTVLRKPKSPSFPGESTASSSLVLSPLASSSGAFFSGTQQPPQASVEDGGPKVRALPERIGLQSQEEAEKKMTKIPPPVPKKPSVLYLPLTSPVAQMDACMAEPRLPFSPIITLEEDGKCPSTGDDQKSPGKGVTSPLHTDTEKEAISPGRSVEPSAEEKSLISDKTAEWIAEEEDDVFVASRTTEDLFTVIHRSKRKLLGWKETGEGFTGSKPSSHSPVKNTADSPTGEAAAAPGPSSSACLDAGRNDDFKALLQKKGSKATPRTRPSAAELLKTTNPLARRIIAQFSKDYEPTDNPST
UniProt Q8CAF4: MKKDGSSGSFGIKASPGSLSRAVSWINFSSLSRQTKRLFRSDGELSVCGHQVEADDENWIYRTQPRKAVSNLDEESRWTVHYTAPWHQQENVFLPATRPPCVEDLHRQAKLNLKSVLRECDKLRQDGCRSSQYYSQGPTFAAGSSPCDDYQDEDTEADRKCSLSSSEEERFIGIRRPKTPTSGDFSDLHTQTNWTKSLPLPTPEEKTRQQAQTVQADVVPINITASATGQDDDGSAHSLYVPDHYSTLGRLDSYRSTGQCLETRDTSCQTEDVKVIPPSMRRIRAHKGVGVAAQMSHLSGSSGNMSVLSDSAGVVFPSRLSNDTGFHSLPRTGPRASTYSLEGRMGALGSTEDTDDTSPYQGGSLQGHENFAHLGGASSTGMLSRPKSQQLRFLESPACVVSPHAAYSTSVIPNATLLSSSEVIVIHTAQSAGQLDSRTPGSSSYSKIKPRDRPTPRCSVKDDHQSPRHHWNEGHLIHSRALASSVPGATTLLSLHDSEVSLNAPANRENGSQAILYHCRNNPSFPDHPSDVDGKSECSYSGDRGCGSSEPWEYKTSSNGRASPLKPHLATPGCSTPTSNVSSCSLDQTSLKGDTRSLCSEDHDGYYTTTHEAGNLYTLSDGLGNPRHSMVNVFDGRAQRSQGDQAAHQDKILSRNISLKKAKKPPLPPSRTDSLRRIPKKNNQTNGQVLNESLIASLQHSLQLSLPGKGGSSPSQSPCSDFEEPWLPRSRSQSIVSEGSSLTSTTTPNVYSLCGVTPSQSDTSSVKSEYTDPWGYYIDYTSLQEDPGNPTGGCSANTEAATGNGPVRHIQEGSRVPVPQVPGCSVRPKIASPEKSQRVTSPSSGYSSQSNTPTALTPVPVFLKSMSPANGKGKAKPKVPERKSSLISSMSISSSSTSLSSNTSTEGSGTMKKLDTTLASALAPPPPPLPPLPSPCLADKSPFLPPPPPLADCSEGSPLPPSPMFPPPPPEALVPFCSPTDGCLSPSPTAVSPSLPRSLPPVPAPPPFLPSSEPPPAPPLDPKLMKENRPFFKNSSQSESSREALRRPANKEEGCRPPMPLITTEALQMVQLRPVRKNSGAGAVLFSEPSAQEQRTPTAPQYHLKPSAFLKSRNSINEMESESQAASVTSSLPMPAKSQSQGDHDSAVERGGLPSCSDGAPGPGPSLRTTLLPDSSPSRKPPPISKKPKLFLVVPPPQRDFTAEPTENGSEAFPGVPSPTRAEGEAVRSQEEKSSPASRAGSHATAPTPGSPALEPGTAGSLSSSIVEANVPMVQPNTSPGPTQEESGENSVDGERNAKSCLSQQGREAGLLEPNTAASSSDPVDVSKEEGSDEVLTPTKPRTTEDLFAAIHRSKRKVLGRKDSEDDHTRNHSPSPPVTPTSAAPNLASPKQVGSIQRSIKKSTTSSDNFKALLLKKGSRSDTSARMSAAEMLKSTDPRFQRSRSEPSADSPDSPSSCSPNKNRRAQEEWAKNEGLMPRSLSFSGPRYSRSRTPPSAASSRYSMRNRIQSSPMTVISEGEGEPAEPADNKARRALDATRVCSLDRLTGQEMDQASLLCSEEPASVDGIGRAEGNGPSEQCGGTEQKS

These are yes or no findings as the source states them, for the method shown. Binding seen in cells or lysates may run through a third protein. Some results given as binding are weak or reduced against the parent protein; the word gives no strength. For some assays here: Where a sequence is shown, tags or fusion partners need not be part of it.

Experiment [1] addresses EndoA1-EGFP (endophilin-A1) (human) (UniProt Q99962). Briefly: pull-down.
Experiment [2] addresses EndoA2-EGFP (C-terminally EGFP-tagged rat full length endophilin-A2) (rat) (UniProt O35964). In words: pull-down.
Experiment [3] concerns the target EndoA3-EGFP (endophilin-A3) (human) (UniProt Q99963). Briefly: pull-down.
The target in experiment [4] is GST-tagged SH3 domain of EndoA1 (human) (UniProt Q99962). In words: pull-down.
Experiment [5] has as its target T1, GST-tagged SH3 domain of EndoA2 (rat) (UniProt O35964).
T1 sequence: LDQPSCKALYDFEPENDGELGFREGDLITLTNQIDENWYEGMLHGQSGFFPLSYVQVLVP
Briefly: pull-down.

In experiment [6] the target is GST-tagged SH3 domain of EndoA3 (human) (UniProt Q99963). In words: pull-down.
Experiment [7] concerns the target EGFP-tagged NHSL2 (mouse) (UniProt B1AXH1). Briefly: pull-down.
In experiment [8] the target is endogenous NHSL1 (mouse (endogenous in B16-F1)) (UniProt Q8CAF4). Briefly: co-IP.

In the case of “Myc-tagged NHSL2 (from UniProt B1AXH1 1-1219)”, the binding result in experiment [1], in experiment [2], in experiment [3], in experiment [4], in experiment [5] and in experiment [6] was “binds” throughout.

“Myc-tagged wild-type EndoA2 (endophilin A2) (from UniProt O35964 1-368)”: in experiment [7], the binding result was “binds”.

B1: endogenous EVL (protein, UniProt P70429 1-414)
chain: MSEQSICQARASVMVYDDTSKKWVPIKPGQQGFSRINIYHNTASSTFRVVGVKLQDQQVVINYSIVKGLKYNQATPTFHQWRDARQVYGLNFASKEEATTFSNAMLFALNIMNSQEGGPSTQRQVQNGPSPEEMDIQRRQVMEQQHRQESLERRISATGPILPPGHPSSAASTTLSCSGPPPPPPPPVPPPPTGSTPPPPPPLPAGGAQGTNHDESSASGLAAALAGAKLRRVQRPEDASGGSSPSGTSKSDANRASSGGGGGGLMEEMNKLLAKRRKAASQTDKPADRKEDESQTEDPSTSPSPGTRATSQPPNSSEAGRKPWERSNSVEKPVSSLLSRTPSVAKSPEAKSPLQSQPHSRVKPAGSVNDVGLDALDLDRMKQEILEEVVRELHKVKEEIIDAIRQELSGISTT
Regarding B1, the binding result in experiment [8] is on record as “binds”.
